Results: patent US20140200142A1, “TREATMENT OF STORED TUBERS WITH AEROSOLS OF HIGHER ALCOHOLS” (1,4 Group, Inc., priority 2013, published 2014)

tested on: existing sprouts on post-dormant potatoes with peeps and sprouts extant; test: Comparison of thermofogged sprout suppressing chemicals for "burn" of existing sprouts (Example IV); format: in vivo; conditions: observation on treated potatoes
Description: Various sprout suppressing chemicals were compared for their ability to suppress existing sprouts on post-dormant potatoes with peeps and sprouts extant. […] Clove oil applied at a predetermined dosage gave a “burn” effectiveness of 46% of existing peeps while 1-nonanol at a dosage one-fourth as great gave a 50% “burn.” At a one-half dosage, 1-nonanol provided a 100% “burn” effectiveness within 24 hours after treatment. In the above table “Burn old” refers to the effect upon old sprouts, which included sprouts up to nine months old, these being generally more difficult to desiccate, while “burn new” refers to newly emerged sprouts and peeps, generally less than a month or so in existence.

Compound | Comments
CCCCCCCCCCCCO [Dodecanol] | Stringy, sticky liquid

same assay, conditions: thermofogged chemical on potatoes

Compound | Smell
CCCCCCCCCCO [1-Decanol, 1-decanol] | moderate
CCCCCCCCCO [1-Nonanol, 1-nonanol] | Moderate
CCCCCCCCO [1-Octanol, 1-octanol] | Pleasant, slight
CCCCCOC(C)=O [AmylAcetate, reference compound] | Rotten banana
CCCCCCCCCCCCO [Dodecanol] | moderate
CCCCCCO [Hexanol] | Pleasant, fruity
